# Test results taken from PubChem BioAssay AID504834 (National Center for Advancing Translational Sciences (NCATS), 2011).
# Out of some 320,000 compounds screened, about 22,000 (6.9%) were called active. The shares of active, inactive and inconclusive entries below differ from those in the screen. Calls come from the whole dose curve; as a rule, active = well fitted inhibition curve with a large enough effect; inconclusive = small, poorly fitted or top-dose-only effect, or another doubt; inactive = no such curve, though single readings can be large or run the other way. A potency beside an inconclusive call is a rough fit, not a confirmed value.
# Test: Primary qHTS for delayed death inhibitors of the malarial parasite plastid, 96 hour incubation
# Conditions: P. falciparum luciferase reporter growth; series mostly up to 28.7 µM
# How it was run: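 Luminescence readout: decreased luciferase signal marks inhibited growth of reporter-expressing P. falciparum in infected red cells (2% hematocrit, 0.05% parasitemia final), exposed to compound two generations (96 h, 37 C, 5% CO2).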
# Potency is the fitted concentration of half-maximal effect.
row,SMILES,Potency
1,COc1ccc(/C=C2\Sc3ccc(C(=O)N4CCCC4)cc3N(C)C2=O)cc1OC,"inconclusive: 1.47 µM [inhibitor, partial curve, poor fit]"
2,Cc1cccc(C(=O)NNC(=O)C2CCCO2)c1 (stereo not drawn),"inconclusive: 6.57 µM [inhibitor, partial curve, poor fit]"
3,Clc1ccc2c(c1)C(N1CCNCC1)Cc1ccccc1S2 (stereo not drawn),active: 13.1 µM
4,Cc1cccc(NC(=O)C2CCCN2C(=O)OCC(C)C)c1 (stereo not drawn),"inconclusive: 3.29 µM [inhibitor, partial curve, poor fit]"
5,CCOc1cc(CNCc2cccs2)cc(Br)c1OCC,"inconclusive: 0.0738 µM [inhibitor, full curve, poor fit]"
6,O=C(CN1CCCC1)NCc1ccccc1,active: 13.1 µM
7,O=C(CNC(=O)c1ccco1)NCC(=O)OCc1cccc(Cl)c1,"inconclusive: 10.4 µM [inhibitor, single point]"
8,CCOC(=O)c1cc(CC)sc1/N=C/c1c(O)ccc2ccccc12,inactive
9,C/C(=N/NC(=O)c1ccc(Br)o1)c1ccncc1,inactive
10,CN1CC(c2ccc(Cl)c(Cl)c2)[C@@]2(COc3ccccc3C2=O)[C@@]12C(=O)Nc1ccccc12 (stereo partly drawn),active: 2.08 µM
11,CN(Cc1cnn(C)c1)C(=O)c1cc2ccccc2oc1=O,"inconclusive: 0.0657 µM [inhibitor, full curve, poor fit]"
12,CN(CC(=O)N1CCCCCC1)S(=O)(=O)c1ccc(Br)cc1,inactive
13,CCOC(=O)c1c(-c2ccc(OC)cc2)oc2ccc(OC(=O)N(C)C)cc12,"inconclusive: 0.415 µM [inhibitor, full curve, poor fit]"
14,COc1cc(OC)c2c(-c3ccccc3)cc(=O)oc2c1C(CCN1CCCCC1)c1ccc(N(C)C)cc1 (stereo not drawn),"inconclusive: 16.5 µM [inhibitor, single point]"
15,COc1cc(-c2[nH]ncc2CN2CCN(Cc3cccs3)CC2)cc(OC)c1OC,"inconclusive: 16.5 µM [inhibitor, single point]"
16,COc1cccc(-c2sc3ccc(OC)cc3c2C#CCC(C)O)c1 (stereo not drawn),"inconclusive: 18.5 µM [inhibitor, single point]"
17,O=C(c1cc([N+](=O)[O-])ccc1Cl)N1CCN(c2ccccc2)CC1,inactive
18,O=C(O)c1cccc(NN=C2c3ccccc3-c3ccccc32)c1,inactive
19,CCOC(=O)c1c(C)[nH]c(C)c1C(=O)COC(=O)c1ccc(OC)cc1,"inconclusive: 10.4 µM [inhibitor, partial curve, poor fit]"
20,CCC(=O)N(Cc1cc2c(C)ccc(C)c2[nH]c1=O)C1CCCCC1,"inconclusive: 13.1 µM [inhibitor, single point]"
21,CCc1nnc(NC(=O)c2cc(-c3ccc(C)o3)nc3ccccc23)s1,inactive
22,C=CCOc1ccc(/C=C/C(=O)OCC(=O)N2CCC(c3ccccc3)=N2)cc1,"inconclusive: 10.4 µM [inhibitor, single point]"
23,CN1CCN(c2nc(N(C)C)oc(=O)c2C#N)CC1,active: 0.0037 µM
24,COc1ccc(CN2CCC(C(=O)Nc3ccc(Oc4ccccc4)nc3)CC2)cc1F,"inconclusive: 11.7 µM [inhibitor, single point]"
25,COC(=O)c1ccc(NC(=O)COc2ccc(S(=O)(=O)NC(C)C)cc2)cc1,"inconclusive: 10.4 µM [inhibitor, single point]"

row,SMILES,Potency
1,O=C(Nc1ccccc1)N1CCc2ccccc2C1,inactive
2,Cc1ccc(C)c(-c2nnc(NC(=O)CCS(=O)(=O)c3ccc(F)cc3)o2)c1,inactive
3,Cc1nc(Nc2cccc(O)c2)c2c3c(sc2n1)CCC3,"inconclusive: 0.0033 µM [inhibitor, full curve, poor fit]"
4,O=C(CC(=O)Nc1cc(Cl)ccc1Cl)Nc1cc(Cl)ccc1Cl,"inconclusive: 18.5 µM [inhibitor, single point]"
5,O=C(NC1CCCCC1)NC1CCN(S(=O)(=O)c2ccc3c(c2)OCCO3)CC1,"inconclusive: 18.5 µM [inhibitor, single point]"
6,COc1ccc(NC(=O)C2CCCN(c3nn4c(=O)cc(C)nc4s3)C2)cc1 (stereo not drawn),"inconclusive: 18.5 µM [inhibitor, single point]"
7,COc1ccc(C2=Nn3c(nnc3-c3ccco3)SC2)cc1OC,"inconclusive: 0.0165 µM [inhibitor, full curve, poor fit]"
8,O=C(Nc1ccccn1)C1CCN(S(=O)(=O)c2cccs2)CC1,inactive
9,COc1ccccc1NC(=O)COc1cccc(-n2cnnn2)c1,"inconclusive: 4.65 µM [inhibitor, partial curve]"
10,COC(=O)c1c(NC(=O)CN2C(=O)C(=O)N(CC(C)C)C2=O)sc2c1CCCCC2,inactive
11,COc1ncnc2c1NC(=O)CS2,"inconclusive: 10.4 µM [inhibitor, partial curve, poor fit]"
12,COc1ccc(NC(=O)c2sc3nc(N4CCCC4)c4c(c3c2N)CC(C)(C)OC4)cc1,active: 11.7 µM
13,CNC(=S)N/N=C1\C(=O)c2cccc3cccc1c23,"inconclusive: 0.0294 µM [inhibitor, full curve, poor fit]"
14,COCC(=O)N(Cc1cc2cc(C)ccc2[nH]c1=O)c1ccccc1,"inconclusive: 18.5 µM [inhibitor, single point]"
15,O=S(=O)(NCCSc1ccccc1)c1cccs1,"inconclusive: 4.15 µM [inhibitor, partial curve, poor fit]"
16,O=C(CSc1nnnn1C1CC1)N1CCN(Cc2ccccc2F)CC1,inactive
17,COC(=O)c1ccc2nc(C)cc(Nc3ccccc3C)c2c1,"inconclusive: 11.7 µM [inhibitor, partial curve, poor fit]"
18,COc1ccc(CNC(=O)C2(CC3CC(c4ccccc4)=NO3)CCN(C(=O)C3CCCC3)CC2)cc1 (stereo not drawn),active: 5.22 µM
19,CCOC(=O)c1ccc(NC(=S)NC2CC(C)(C)NC(C)(C)C2)cc1,"inconclusive: 4.65 µM [inhibitor, partial curve, poor fit]"
20,Cc1ccc(-c2n[nH]c(=S)n2/N=C/c2ccc(C(=O)O)cc2)cc1,inactive
21,O=C(CNS(=O)(=O)c1cccs1)NCCc1ccc(Cl)cc1,active: 13.1 µM
22,CC(=O)N1c2ccc(S(=O)(=O)NCCC(=O)NC3CCC(C)CC3)cc2CC1C (stereo not drawn),"inconclusive: 0.0033 µM [inhibitor, full curve, poor fit]"
23,N#Cc1nc(COc2ccccc2Cl)oc1N1CCCC1,"inconclusive: 3.29 µM [inhibitor, single point]"
24,CC(=C\C(=O)O)/C(=C\c1cccc2ccccc12)C(=O)O,inactive
25,CC1CCN(S(=O)(=O)c2ccc3c(c2)c(=O)c(C(=O)NCc2ccccc2Cl)cn3C)CC1,"inconclusive: 7.38 µM [inhibitor, partial curve, poor fit]"

# A portion of the results above, as a working copy:
row,SMILES,Potency
19,CCOC(=O)c1ccc(NC(=S)NC2CC(C)(C)NC(C)(C)C2)cc1,"inconclusive: 4.65 µM [inhibitor, partial curve, poor fit]"
20,Cc1ccc(-c2n[nH]c(=S)n2/N=C/c2ccc(C(=O)O)cc2)cc1,inactive
21,O=C(CNS(=O)(=O)c1cccs1)NCCc1ccc(Cl)cc1,active: 13.1 µM
22,CC(=O)N1c2ccc(S(=O)(=O)NCCC(=O)NC3CCC(C)CC3)cc2CC1C (stereo not drawn),"inconclusive: 0.0033 µM [inhibitor, full curve, poor fit]"
23,N#Cc1nc(COc2ccccc2Cl)oc1N1CCCC1,"inconclusive: 3.29 µM [inhibitor, single point]"

# More entries follow.

row,SMILES,Potency
1,CCCCC(=O)NC(c1cccs1)c1cc(Cl)c2cccnc2c1O (stereo not drawn),inactive
2,O=C(N/N=C/c1ccccc1C(=O)O)c1ccc(COc2cccc3cccnc23)cc1,inactive
3,NC1=NC(c2cccnc2)n2c(nc3ccccc32)N1 (stereo not drawn),inactive
4,Cc1ccccc1NS(=O)(=O)c1ccc(C(=O)NCC(c2ccco2)N2CCCCC2)cc1 (stereo not drawn),"inconclusive: 18.5 µM [inhibitor, single point]"
5,Fc1ccc(/C=N/NC(=S)NCCc2ccccc2)cc1F,inactive
6,COC(=O)c1ccc(CNC(=O)c2ccc3c(c2)S(=O)(=O)N=C2CCCCCN23)cc1,"inconclusive: 18.5 µM [inhibitor, single point]"
7,CC(C)NC(=O)COc1coc(CN2CCN(Cc3ccccc3)CC2)cc1=O,"inconclusive: 13.1 µM [inhibitor, single point]"
8,COc1ccc(NC(=O)CSc2nnc(-c3ccc(F)cc3)o2)cn1,inactive
9,COc1ccc(OC)c(C(=O)Cn2c3[n+](c4ccc(C(F)(F)F)cc42)CCCCC3)c1,active: 0.522 µM
10,Cc1cc(=O)[nH]c(/N=C(\N)Nc2cccc3ccccc23)n1,"inconclusive: 4.65 µM [inhibitor, partial curve]"
11,Cc1ccc2oc(-c3ccco3)nc2c1,inactive
12,Clc1cccc(Cn2ncc3ccccc32)c1,"inconclusive: 2.94 µM [inhibitor, full curve, poor fit]"
13,Cc1ccc(-c2csc(/C(C#N)=C/Nc3ccccc3SC(F)(F)F)n2)c(C)c1,"inconclusive: 4.15 µM [inhibitor, single point]"
14,COc1ccc(C)cc1NC(=O)CN1C(=O)COc2ccc(C)cc21,active: 5.22 µM
15,CCc1nnc(NC(=O)c2cc(S(=O)(=O)N3CCCCC3)ccc2C)s1,"inconclusive: 11.7 µM [inhibitor, single point]"
16,COc1cccc(N2CC(C(=O)Nc3nnc(SCC(=O)NCc4ccco4)s3)CC2=O)c1 (stereo not drawn),"inconclusive: 18.5 µM [inhibitor, single point]"
17,Cc1ccsc1/C=N/NC(=O)c1cccc(S(=O)(=O)Nc2ccccc2Cl)c1,inactive
18,CC(=O)c1cccc(NC(=O)CCNC(=O)c2cccc(C)c2)c1,inactive
19,COc1ccc(NC(=O)C2CCCN(CCCc3ccccc3)C2)cc1OCC(C)C (stereo not drawn),inactive
20,Cc1ccccc1NC(=O)C(C)N1C(=O)c2ccccc2C1=O (stereo not drawn),active: 2.94 µM
21,CCOC(=O)C1=C(C)NC(C)=C(C(=O)OCC)C1c1ccccn1,"inconclusive: 11.7 µM [inhibitor, single point]"
22,COc1cc(/C=C2\SC(=O)N(CC(=O)Nc3ccccc3F)C2=O)cc(Cl)c1O,inactive
23,CC1CC(OC(=O)c2ccccc2)(c2ccccc2)C(C)CN1C (stereo not drawn),"inconclusive: 14.7 µM [inhibitor, single point]"
